Source: the supplement of paper PMC10849652
The other results are listed elsewhere or left out.

Amino acid sequences for entries named in this document (tags omitted). A change or cut given only in a name is not applied to a line headed by its entry.
UniProt P30154, whole entry, looked up: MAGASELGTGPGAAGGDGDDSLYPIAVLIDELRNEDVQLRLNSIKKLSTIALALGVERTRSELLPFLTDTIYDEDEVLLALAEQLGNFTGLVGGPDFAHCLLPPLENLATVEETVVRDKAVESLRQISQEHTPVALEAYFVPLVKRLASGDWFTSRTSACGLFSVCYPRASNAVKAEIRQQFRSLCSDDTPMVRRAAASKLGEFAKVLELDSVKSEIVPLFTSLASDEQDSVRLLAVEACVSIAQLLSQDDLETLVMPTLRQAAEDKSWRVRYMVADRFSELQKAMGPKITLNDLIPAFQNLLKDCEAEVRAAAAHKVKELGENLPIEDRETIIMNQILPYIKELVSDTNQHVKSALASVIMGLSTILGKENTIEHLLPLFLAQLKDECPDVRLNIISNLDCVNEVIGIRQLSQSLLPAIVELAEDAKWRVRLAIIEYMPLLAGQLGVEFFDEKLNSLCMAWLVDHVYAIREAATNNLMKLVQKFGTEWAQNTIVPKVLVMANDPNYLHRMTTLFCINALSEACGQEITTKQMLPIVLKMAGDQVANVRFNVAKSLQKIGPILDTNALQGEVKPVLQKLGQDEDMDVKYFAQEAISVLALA
UniProt Q96M27: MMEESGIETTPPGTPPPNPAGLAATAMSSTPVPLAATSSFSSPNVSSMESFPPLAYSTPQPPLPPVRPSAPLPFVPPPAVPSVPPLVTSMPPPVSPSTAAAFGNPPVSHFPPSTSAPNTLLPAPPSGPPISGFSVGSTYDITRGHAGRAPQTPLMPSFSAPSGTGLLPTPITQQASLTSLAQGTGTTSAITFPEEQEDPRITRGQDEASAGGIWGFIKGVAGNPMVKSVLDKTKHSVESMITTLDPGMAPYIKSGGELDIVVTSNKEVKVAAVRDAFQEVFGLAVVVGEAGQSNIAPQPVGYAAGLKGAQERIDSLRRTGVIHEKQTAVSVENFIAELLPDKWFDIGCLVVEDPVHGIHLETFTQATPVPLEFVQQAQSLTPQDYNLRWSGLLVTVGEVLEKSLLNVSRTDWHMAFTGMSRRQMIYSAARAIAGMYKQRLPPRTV
UniProt P53041: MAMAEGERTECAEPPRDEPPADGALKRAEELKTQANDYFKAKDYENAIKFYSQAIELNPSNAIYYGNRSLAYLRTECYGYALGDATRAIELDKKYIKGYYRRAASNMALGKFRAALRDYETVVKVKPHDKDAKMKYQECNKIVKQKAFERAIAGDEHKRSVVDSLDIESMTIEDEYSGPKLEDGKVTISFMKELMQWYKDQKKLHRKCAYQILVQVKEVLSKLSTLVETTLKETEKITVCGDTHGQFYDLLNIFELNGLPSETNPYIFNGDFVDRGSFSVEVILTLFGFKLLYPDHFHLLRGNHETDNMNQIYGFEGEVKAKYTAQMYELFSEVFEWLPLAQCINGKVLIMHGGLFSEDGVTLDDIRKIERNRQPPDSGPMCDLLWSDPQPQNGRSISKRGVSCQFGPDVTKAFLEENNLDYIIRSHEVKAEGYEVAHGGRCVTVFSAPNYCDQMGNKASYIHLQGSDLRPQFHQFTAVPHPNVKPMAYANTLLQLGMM
UniProt Q9ULR3: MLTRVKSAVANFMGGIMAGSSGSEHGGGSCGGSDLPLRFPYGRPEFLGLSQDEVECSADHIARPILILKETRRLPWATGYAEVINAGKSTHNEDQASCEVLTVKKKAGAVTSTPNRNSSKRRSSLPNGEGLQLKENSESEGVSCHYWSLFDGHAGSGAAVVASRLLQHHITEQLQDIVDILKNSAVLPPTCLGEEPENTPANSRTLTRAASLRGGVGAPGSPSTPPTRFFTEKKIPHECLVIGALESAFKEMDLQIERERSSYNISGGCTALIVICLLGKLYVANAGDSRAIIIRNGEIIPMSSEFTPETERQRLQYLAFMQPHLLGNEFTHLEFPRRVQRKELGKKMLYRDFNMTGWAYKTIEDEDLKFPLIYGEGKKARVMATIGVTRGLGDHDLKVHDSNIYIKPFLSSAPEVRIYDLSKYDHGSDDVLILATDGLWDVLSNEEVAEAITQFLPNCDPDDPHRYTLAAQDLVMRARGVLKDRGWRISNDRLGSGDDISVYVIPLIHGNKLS
UniProt P07225: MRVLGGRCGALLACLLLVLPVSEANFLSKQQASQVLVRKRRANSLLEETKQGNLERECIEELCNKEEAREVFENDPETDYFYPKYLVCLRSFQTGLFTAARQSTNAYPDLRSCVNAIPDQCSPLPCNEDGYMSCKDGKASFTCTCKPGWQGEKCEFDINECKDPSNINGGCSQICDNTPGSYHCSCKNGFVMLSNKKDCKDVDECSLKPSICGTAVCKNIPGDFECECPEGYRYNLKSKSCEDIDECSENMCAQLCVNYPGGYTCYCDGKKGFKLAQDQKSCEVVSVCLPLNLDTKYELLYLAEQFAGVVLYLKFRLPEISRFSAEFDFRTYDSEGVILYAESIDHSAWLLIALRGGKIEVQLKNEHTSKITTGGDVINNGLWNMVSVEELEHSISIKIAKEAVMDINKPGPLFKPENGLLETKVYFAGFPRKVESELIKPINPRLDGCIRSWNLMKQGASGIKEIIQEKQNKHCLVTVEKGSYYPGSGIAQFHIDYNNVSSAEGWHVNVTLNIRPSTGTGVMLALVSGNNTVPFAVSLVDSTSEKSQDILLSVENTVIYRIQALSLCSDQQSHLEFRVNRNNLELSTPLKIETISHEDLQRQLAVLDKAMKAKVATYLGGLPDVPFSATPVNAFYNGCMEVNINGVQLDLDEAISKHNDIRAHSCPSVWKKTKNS
UniProt P48634: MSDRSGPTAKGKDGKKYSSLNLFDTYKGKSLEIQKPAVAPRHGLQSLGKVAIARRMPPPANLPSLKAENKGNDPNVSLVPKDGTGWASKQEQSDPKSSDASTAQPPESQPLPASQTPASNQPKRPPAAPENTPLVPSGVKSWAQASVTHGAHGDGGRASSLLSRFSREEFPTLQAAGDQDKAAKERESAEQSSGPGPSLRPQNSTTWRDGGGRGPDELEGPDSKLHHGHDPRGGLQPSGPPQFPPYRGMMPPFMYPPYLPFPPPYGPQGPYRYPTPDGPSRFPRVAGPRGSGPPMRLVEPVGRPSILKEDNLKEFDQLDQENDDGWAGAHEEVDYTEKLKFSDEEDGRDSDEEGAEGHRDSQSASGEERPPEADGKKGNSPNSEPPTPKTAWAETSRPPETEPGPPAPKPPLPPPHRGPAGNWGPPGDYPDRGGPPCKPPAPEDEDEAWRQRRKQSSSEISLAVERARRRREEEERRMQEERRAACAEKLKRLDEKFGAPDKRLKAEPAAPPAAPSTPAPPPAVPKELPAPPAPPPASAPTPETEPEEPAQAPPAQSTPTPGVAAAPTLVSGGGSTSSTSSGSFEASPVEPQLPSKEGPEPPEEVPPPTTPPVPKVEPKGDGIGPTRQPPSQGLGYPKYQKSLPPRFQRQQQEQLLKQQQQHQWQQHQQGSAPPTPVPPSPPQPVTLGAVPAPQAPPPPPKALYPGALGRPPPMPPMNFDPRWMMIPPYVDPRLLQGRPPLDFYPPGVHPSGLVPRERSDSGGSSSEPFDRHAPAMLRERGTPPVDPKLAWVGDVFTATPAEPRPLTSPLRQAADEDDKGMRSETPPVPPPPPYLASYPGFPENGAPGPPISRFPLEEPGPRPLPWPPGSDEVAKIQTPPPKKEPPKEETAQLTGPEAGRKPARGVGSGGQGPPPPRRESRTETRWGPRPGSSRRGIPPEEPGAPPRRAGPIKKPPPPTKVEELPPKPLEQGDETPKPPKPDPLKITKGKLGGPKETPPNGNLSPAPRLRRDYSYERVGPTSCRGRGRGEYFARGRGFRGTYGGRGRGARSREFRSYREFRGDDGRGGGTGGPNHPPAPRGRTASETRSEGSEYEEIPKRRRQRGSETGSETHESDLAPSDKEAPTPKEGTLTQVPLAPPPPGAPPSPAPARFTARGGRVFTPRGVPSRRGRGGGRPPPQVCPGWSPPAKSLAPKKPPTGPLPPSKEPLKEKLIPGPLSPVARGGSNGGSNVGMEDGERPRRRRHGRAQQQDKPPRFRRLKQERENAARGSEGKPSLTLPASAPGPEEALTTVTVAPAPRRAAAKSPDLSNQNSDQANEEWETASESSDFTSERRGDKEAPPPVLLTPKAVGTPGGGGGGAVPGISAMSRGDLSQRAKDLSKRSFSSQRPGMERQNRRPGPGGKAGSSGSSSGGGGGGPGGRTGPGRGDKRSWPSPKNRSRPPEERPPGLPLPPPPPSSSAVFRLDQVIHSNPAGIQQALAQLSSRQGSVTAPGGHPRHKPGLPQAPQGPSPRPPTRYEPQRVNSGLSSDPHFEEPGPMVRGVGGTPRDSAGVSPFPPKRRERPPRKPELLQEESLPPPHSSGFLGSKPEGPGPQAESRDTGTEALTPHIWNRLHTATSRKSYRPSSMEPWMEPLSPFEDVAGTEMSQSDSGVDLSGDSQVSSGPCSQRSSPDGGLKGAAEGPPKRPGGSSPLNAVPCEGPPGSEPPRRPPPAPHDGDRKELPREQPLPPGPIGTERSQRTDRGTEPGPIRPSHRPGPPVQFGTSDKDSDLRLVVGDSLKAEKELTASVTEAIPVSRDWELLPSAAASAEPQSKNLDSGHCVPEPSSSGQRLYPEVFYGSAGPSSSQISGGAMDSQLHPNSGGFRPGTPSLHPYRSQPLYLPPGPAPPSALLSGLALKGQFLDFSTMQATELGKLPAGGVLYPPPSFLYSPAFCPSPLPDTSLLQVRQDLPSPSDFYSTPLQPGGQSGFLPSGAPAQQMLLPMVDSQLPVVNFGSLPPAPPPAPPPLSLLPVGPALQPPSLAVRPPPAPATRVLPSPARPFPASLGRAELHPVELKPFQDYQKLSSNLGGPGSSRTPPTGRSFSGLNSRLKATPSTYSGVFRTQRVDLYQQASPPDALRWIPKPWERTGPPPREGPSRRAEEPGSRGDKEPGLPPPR
UniProt Q8TAE6: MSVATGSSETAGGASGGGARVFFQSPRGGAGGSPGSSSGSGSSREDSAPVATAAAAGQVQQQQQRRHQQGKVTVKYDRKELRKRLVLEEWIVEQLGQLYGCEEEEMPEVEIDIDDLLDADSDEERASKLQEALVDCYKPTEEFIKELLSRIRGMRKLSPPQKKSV
UniProt P30153, whole entry, looked up: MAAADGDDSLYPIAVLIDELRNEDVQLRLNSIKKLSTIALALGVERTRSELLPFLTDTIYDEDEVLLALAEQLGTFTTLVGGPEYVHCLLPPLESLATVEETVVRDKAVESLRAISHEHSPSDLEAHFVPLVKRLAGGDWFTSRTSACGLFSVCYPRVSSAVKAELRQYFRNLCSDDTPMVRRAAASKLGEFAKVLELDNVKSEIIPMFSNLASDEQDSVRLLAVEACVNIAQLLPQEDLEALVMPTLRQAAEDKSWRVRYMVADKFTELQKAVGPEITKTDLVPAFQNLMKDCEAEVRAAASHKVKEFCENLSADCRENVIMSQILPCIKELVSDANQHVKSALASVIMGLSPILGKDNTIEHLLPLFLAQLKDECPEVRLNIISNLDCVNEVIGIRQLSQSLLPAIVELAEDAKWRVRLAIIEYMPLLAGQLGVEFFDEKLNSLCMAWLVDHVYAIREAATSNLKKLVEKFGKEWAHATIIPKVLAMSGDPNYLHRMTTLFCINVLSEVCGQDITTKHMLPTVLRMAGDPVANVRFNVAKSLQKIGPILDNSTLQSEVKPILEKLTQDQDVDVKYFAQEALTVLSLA
UniProt P60510: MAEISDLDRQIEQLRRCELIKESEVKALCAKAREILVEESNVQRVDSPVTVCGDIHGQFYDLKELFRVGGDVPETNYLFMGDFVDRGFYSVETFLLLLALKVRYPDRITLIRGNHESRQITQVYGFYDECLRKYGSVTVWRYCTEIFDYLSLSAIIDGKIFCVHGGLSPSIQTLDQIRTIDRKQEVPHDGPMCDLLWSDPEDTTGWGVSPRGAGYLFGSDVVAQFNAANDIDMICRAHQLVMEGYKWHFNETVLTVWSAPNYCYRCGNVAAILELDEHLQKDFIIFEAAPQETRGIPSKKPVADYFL
UniProt Q14738, whole entry, looked up: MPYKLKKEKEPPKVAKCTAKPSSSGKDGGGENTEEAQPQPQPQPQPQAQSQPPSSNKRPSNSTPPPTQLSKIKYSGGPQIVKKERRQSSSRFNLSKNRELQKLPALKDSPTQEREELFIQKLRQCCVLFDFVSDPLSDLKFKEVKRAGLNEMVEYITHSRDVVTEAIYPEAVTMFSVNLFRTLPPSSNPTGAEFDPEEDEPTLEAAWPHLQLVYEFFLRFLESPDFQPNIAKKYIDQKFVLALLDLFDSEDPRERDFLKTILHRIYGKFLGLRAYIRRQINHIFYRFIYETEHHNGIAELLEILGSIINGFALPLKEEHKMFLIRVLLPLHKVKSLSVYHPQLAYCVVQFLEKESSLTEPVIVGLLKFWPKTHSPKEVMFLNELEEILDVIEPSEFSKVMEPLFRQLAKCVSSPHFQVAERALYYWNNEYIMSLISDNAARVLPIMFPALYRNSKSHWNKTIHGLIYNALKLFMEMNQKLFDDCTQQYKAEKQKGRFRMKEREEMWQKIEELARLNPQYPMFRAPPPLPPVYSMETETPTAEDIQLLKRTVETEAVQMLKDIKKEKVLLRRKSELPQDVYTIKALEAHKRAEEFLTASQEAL

Key:
Assay in all cases: log2 fold change, soluble protein after heating vs DMSO (PISA); higher = thermal stabilisation; K562 cells, 10 uM, 30 min; active = over 0.2 and 3.5 SD of the protein, either way, in both replicates (recomputed)
[1] = compound: CC[C@@H]1C(=O)N(C)c2cnc(Nc3ccc(C(=O)NC4CCN(C)CC4)cc3OC)nc2N1C1CCCC1
Procedure, shortened: (§1)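 Soluble protein was defined as the supernatant after 21,000xg for 90 min. It came from K562 cells at 2×10^6 cells/mL given 10 μM compound for 30 min, heated in aliquots for 3 min across 48°C-58°C, pooled, and extracted in PBS with 0.5% NP-40 at 4°C, and was quantified by TMTpro 16plex LC-MS/MS with equalised channel sums. Thermal stability against control samples, from duplicates, is reported as log2 fold change.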

volasertib = compound: CC[C@@H]1C(=O)N(C)c2cnc(Nc3ccc(C(=O)N[C@H]4CC[C@H](N5CCN(CC6CC6)CC5)CC4)cc3OC)nc2N1C(C)C [volasertib]
Procedure, shortened: as §1

[2] = compound: CC[C@H](C)N1C=C(C2=C(C=C(C=C21)C3=CN=C(C=C3)N4CCNCC4)C(=O)NCC5=C(C=C(NC5=O)C)C)C
Procedure, shortened: as §1

epoxomicin = compound: CC[C@H](C)[C@@H](C(=O)N[C@@H]([C@@H](C)O)C(=O)N[C@@H](CC(C)C)C(=O)[C@]1(CO1)C)NC(=O)[C@H]([C@@H](C)CC)N(C)C(=O)C [epoxomicin]
Procedure, shortened: as §1

[3] = compound: CCn1c(C(=O)N(C2CC2)C2CC2)cc2c3c(ncn3C)c(Nc3cc(C)n(C)n3)nc21
Procedure, shortened: as §1

[4] = compound: CCn1cc(-c2ccnc3[nH]c(-c4cccc(CN(C)C)c4)cc23)c(-c2ccc(NC(=O)N(C)C)cc2)n1
Procedure, shortened: as §1

[5] = compound: CN(C)CC(=O)Nc1ccc2[nH]c(=O)c3ccccc3c2c1
Procedure, shortened: as §1

rosiglitazone = compound: CN(CCOC1=CC=C(C=C1)C[C@H]2C(=O)NC(=O)S2)C3=CC=CC=N3 (racemic) [rosiglitazone]
Procedure, shortened: as §1

[6] = compound: CN1C2=C(C3=C1C(=O)N(N=C3)CC4=CC(=CC=C4)N)SC(=C2)S(=O)C
Procedure, shortened: as §1

[7] = compound: CN1CCC(CNc2ccc3ncc(-c4cccc(OC(F)(F)F)c4)n3n2)CC1
Procedure, shortened: as §1

saracatinib = compound: CN1CCN(CCOc2cc(OC3CCOCC3)c3c(Nc4c(Cl)ccc5c4OCO5)ncnc3c2)CC1 [saracatinib]
Procedure, shortened: as §1

sotrastaurin = compound: CN1CCN(c2nc(C3=C(c4c[nH]c5ccccc45)C(=O)NC3=O)c3ccccc3n2)CC1 [sotrastaurin]
Procedure, shortened: as §1

alvocidib = compound: CN1CC[C@H](c2c(O)cc(O)c3c(=O)cc(-c4ccccc4Cl)oc23)[C@H](O)C1 [alvocidib]
Procedure, shortened: as §1

Tubastatin A = compound: CN1CCc2c(c3ccccc3n2Cc2ccc(C(=O)NO)cc2)C1 [Tubastatin A]
Procedure, shortened: as §1

[8] = compound: CNC(=O)C1=CC=CC=C1NC2=NC(=NC=C2Cl)NC3=C(C=C(C=C3)N4CCOCC4)OC
Procedure, shortened: as §1

defactinib = compound: CNC(=O)c1ccc(Nc2ncc(C(F)(F)F)c(NCc3nccnc3N(C)S(C)(=O)=O)n2)cc1 [defactinib]
Procedure, shortened: as §1

rucaparib = compound: CNCc1ccc(-c2[nH]c3cc(F)cc4c3c2CCNC4=O)cc1 [rucaparib]
Procedure, shortened: as §1

[9] = compound: CNc1nc(-c2ccc3c(N)n[nH]c3c2)cc(N2C[C@@H](C(=O)NC3CCCCC3)CC[C@H]2C)n1
Procedure, shortened: as §1

encorafenib = compound: COC(=O)N[C@@H](C)CNc1nccc(-c2cn(C(C)C)nc2-c2cc(Cl)cc(NS(C)(=O)=O)c2F)n1 [encorafenib]
Procedure, shortened: as §1

[10] = compound: COC(=O)[C@H](CCSC)NC(=O)C1=C(C=C(C=C1)NC[C@H](CS)N)C2=CC=CC=C2
Procedure, shortened: as §1

Measured: log2 fold change

PPP2R1B isoform 2 (UniProt P30154)
inactive: [1] -0.016 | volasertib -0.038 | [2] 0.011 | epoxomicin 0.105 | [3] 0.02 | [4] -0.029 | [5] -0.038 | rosiglitazone -0.005 | [6] 0 | [7] -0.019 | saracatinib 0.002 | sotrastaurin -0.093 | alvocidib -0.025 | Tubastatin A -0.004 | [8] 0.001 | defactinib -0.011 | rucaparib 0.025 | [9] 0.034 | encorafenib 0.041 | [10] -0.021

PRRC1 (UniProt Q96M27)
inactive: [1] 0.027 | volasertib 0.064 | [2] -0.047 | epoxomicin -0.047 | [3] 0.025 | [4] -0.017 | [5] -0.057 | rosiglitazone -0.024 | [6] -0.038 | [7] -0.013 | saracatinib -0.009 | sotrastaurin 0.067 | alvocidib 0.003 | Tubastatin A -0.035 | [8] -0.042 | defactinib 0.003 | rucaparib 0.012 | [9] -0.037 | encorafenib -0.015 | [10] 0.04

PREPL (UniProt Q4J6C6)
inactive: [1] -0.036 | volasertib -0.07 | [2] 0.028 | epoxomicin 0.053 | [3] -0.033 | [4] -0.068 | [5] -0.028 | rosiglitazone 0.005 | [6] -0.057 | [7] -0.146 | saracatinib -0.001 | sotrastaurin 0.006 | alvocidib -0.057 | Tubastatin A 0.011 | [8] -0.02 | defactinib -0.059 | rucaparib 0.026 | [9] -0.021 | encorafenib 0.018 | [10] 0.017

PPP5C (UniProt P53041)
inactive: [1] -0.03 | volasertib -0.056 | [2] 0.033 | epoxomicin 0.021 | [3] -0.004 | [4] 0.005 | [5] 0.011 | rosiglitazone 0.02 | [6] -0.067 | [7] 0.018 | saracatinib 0.028 | sotrastaurin 0.053 | alvocidib -0.034 | Tubastatin A -0.042 | [8] -0.025 | defactinib -0.008 | rucaparib 0.009 | [9] 0.013 | encorafenib -0.024 | [10] 0.018

2 entries drawn at random from the list so far:
PPP5C (UniProt P53041)
inactive: [1] -0.03 | volasertib -0.056 | [2] 0.033 | epoxomicin 0.021 | [3] -0.004 | [4] 0.005 | [5] 0.011 | rosiglitazone 0.02 | [6] -0.067 | [7] 0.018 | saracatinib 0.028 | sotrastaurin 0.053 | alvocidib -0.034 | Tubastatin A -0.042 | [8] -0.025 | defactinib -0.008 | rucaparib 0.009 | [9] 0.013 | encorafenib -0.024 | [10] 0.018

PPP2R1B isoform 2 (UniProt P30154)
inactive: [1] -0.016 | volasertib -0.038 | [2] 0.011 | epoxomicin 0.105 | [3] 0.02 | [4] -0.029 | [5] -0.038 | rosiglitazone -0.005 | [6] 0 | [7] -0.019 | saracatinib 0.002 | sotrastaurin -0.093 | alvocidib -0.025 | Tubastatin A -0.004 | [8] 0.001 | defactinib -0.011 | rucaparib 0.025 | [9] 0.034 | encorafenib 0.041 | [10] -0.021

Following part.

PPP1R7 (UniProt Q15435)
inactive: [1] 0.012 | volasertib 0.025 | [2] -0.067 | epoxomicin -0.021 | [3] 0.015 | [4] -0.112 | [5] -0.049 | rosiglitazone 0.058 | [6] -0.08 | [7] -0.037 | saracatinib 0.037 | sotrastaurin 0.048 | alvocidib 0.009 | Tubastatin A -0.052 | [8] -0.008 | defactinib 0.017 | rucaparib -0.029 | [9] 0.001 | encorafenib -0.054 | [10] 0.032

PPM1H (UniProt Q9ULR3)
inactive: [1] 0.073 | volasertib 0.038 | [2] -0.011 | epoxomicin -0.042 | [3] 0.015 | [4] -0.052 | [5] -0.024 | rosiglitazone 0.046 | [6] -0.032 | [7] 0.028 | saracatinib 0.01 | sotrastaurin 0.074 | alvocidib -0.057 | Tubastatin A 0.012 | [8] 0.005 | defactinib -0.023 | rucaparib -0.094 | [9] -0.014 | encorafenib -0.007 | [10] 0.015

PROS1 (UniProt P07225)
inactive: [1] -0.028 | volasertib -0.011 | [2] 0.008 | epoxomicin -0.173 | [3] 0.019 | [4] -0.017 | [5] -0.037 | rosiglitazone -0.008 | [6] 0.077 | [7] -0.081 | saracatinib 0.067 | sotrastaurin 0.084 | alvocidib 0.046 | Tubastatin A -0.053 | [8] -0.018 | defactinib -0.016 | rucaparib -0.034 | [9] -0.027 | encorafenib 0.005 | [10] 0.078

PRRC2A (UniProt P48634)
inactive: [1] 0.164 | volasertib 0.157 | [2] -0.024 | epoxomicin -0.182 | [3] 0.006 | [4] 0.163 | [5] -0.074 | rosiglitazone -0.071 | [6] 0.144 | [7] 0.267 | saracatinib -0.003 | sotrastaurin 0.053 | alvocidib 0.164 | Tubastatin A 0.042 | [8] 0.002 | defactinib 0.099 | rucaparib 0.226 | [9] 0.041 | encorafenib 0.065 | [10] 0.036

PPP6C isoform 3 (UniProt O00743)
inactive: [1] -0.004 | volasertib -0.023 | [2] -0.025 | epoxomicin -0.035 | [3] 0.024 | [4] 0.007 | [5] -0.051 | rosiglitazone -0.02 | [6] 0.018 | [7] -0.013 | saracatinib 0.052 | sotrastaurin 0.033 | alvocidib 0.013 | Tubastatin A -0.071 | [8] 0.002 | defactinib 0.002 | rucaparib -0.005 | [9] -0.025 | encorafenib 0.004 | [10] 0.051

PPP1R14C (UniProt Q8TAE6)
inactive: [1] -0.028 | volasertib 0.401 | [2] -0.025 | epoxomicin -0.173 | [3] -0.01 | [4] 0.076 | [5] 0.258 | rosiglitazone 0.044 | [6] -0.328 | [7] -0.047 | saracatinib 0.15 | sotrastaurin 0 | alvocidib -0.048 | Tubastatin A -0.036 | [8] -0.016 | defactinib 0.048 | rucaparib -0.066 | [9] -0.195 | encorafenib 0.033 | [10] 0.074

PRPF8 (UniProt Q6P2Q9)
inactive: [1] 0.078 | volasertib -0.08 | [2] 0.022 | epoxomicin -0.09 | [3] -0.027 | [4] 0.045 | [5] -0.033 | rosiglitazone -0.027 | [6] 0.117 | [7] 0.133 | saracatinib 0.029 | sotrastaurin -0.015 | alvocidib 0.03 | Tubastatin A -0.021 | [8] -0.016 | defactinib 0.116 | rucaparib 0.071 | [9] -0.054 | encorafenib 0.016 | [10] -0.006

PPP6R2 isoform 5 (UniProt O75170)
inactive: [1] 0.003 | volasertib -0.109 | [2] 0.012 | epoxomicin 0.03 | [3] 0.004 | [4] -0.022 | [5] 0.045 | rosiglitazone 0.043 | [6] -0.055 | [7] -0.129 | saracatinib 0.031 | sotrastaurin -0.043 | alvocidib -0.032 | Tubastatin A -0.05 | [8] -0.005 | defactinib -0.016 | rucaparib -0.044 | [9] -0.032 | encorafenib 0.051 | [10] -0.034

PRPS2 isoform 2 (UniProt P11908)
inactive: [1] 0.049 | volasertib 0.065 | [2] -0.005 | epoxomicin 0.004 | [3] 0.024 | [4] 0.035 | [5] -0.031 | rosiglitazone -0.004 | [6] -0.052 | [7] 0.009 | saracatinib 0.009 | sotrastaurin 0.054 | alvocidib -0.006 | Tubastatin A 0.002 | [8] -0.013 | defactinib 0.038 | rucaparib -0.029 | [9] -0.026 | encorafenib 0.008 | [10] -0.003

PPP2R1A (UniProt P30153)
inactive: [1] -0.049 | volasertib -0.025 | [2] 0.022 | epoxomicin 0.056 | [3] 0.01 | [4] -0.042 | [5] 0.009 | rosiglitazone 0.021 | [6] -0.089 | [7] -0.037 | saracatinib -0.01 | sotrastaurin -0.012 | alvocidib -0.065 | Tubastatin A -0.03 | [8] 0.046 | defactinib -0.025 | rucaparib -0.085 | [9] -0.018 | encorafenib 0.014 | [10] -0.007

PPP4C (UniProt P60510)
inactive: [1] -0.046 | volasertib -0.047 | [2] -0.013 | epoxomicin -0.032 | [3] -0.033 | [4] -0.009 | [5] -0.003 | rosiglitazone 0 | [6] -0.102 | [7] -0.03 | saracatinib 0.081 | sotrastaurin 0.03 | alvocidib 0.012 | Tubastatin A 0.011 | [8] -0.038 | defactinib -0.021 | rucaparib 0.027 | [9] 0.059 | encorafenib 0.024 | [10] 0.015

PPP2R5D (UniProt Q14738)
inactive: [1] -0.1 | volasertib -0.196 | [2] 0.091 | epoxomicin 0.011 | [3] 0.003 | [4] -0.045 | [5] 0.039 | rosiglitazone 0.023 | [6] -0.009 | [7] -0.045 | saracatinib 0.042 | sotrastaurin -0.121 | alvocidib -0.074 | Tubastatin A 0.06 | [8] 0.069 | defactinib -0.029 | rucaparib 0.019 | [9] -0.014 | encorafenib 0.08 | [10] -0.056
